Source: patent US11413328B2, “Methods for treating inflammatory conditions of the lungs” (priority 2016, dated 2022)
At least one structure is not confirmed: it was looked up by name or label, or the drawing left a doubt.

Experiments:
[1] = system: IL-1β, TNF-α, IL-6, IL-10 and IFNγ in lung tissue homogenates; experiment: Cytokine ELISA in lung tissue homogenates, HDM asthma model (Example 2); format: in vivo, BALB/c mice; settings: vs HDM/vehicle
Experimental: (§1) Female 7-10 weeks old BALB/c mice were randomly allocated into 7 study groups one day prior to study start and subcutaneously (SC) sensitized to house dust mite (100 μg HDM in 200 μL saline plus Freunds complete adjuvant in 0.9% saline). Mice were then intranasally (IN) challenged with HDM on day 14 (HDM 25 μg in 50 μL of saline). […] The initial dose was administered 60 minutes prior to challenge, and the subsequent doses approximately 6 hours apart.
Lung sampling for cytokine analysis: After completion of every BAL, lungs were removed from the thorax, snap frozen in liquid nitrogen and stored frozen at −80 degrees Celsius until analysis of cytokine concentration of IL-1β, TNF-α, IL-6, IL-10 and IFNγ by ELISA.

[2] = system: Dextran Sodium Sulphate (DSS) induced colitis model; experiment: Acute 10-day DSS induced colitis model (Example 6); format: in vivo, mice
[3] = system: murine house dust mite/Freunds complete adjuvant driven model of allergic asthma; experiment: Total and differential cell counts in BALF, HDM asthma model (Example 2); format: in vivo, BALB/c mice; settings: dexamethasone orally 1 mg/kg BID day 14; 48 hours post challenge
Experimental: as §1, with “apart. Airway inflammation: At 48 hours post challenge, bronchoalveolar lavage was performed washing the lungs with 3 volumes of cold PBS (0.4; 0.3 and 0.3 mL, total 1 mL). Total and differential leucocyte cell counts were determined on an automated haematological analyser Sysmex XT-2000iV.” for “apart.”

[4] = oral (hBD-2 0.4 mg/kg TID; dexamethasone 1 mg/kg BID)

SMILES: C[C@@H]1C[C@H]2[C@@H]3CCC4=CC(=O)C=C[C@]4(C)[C@@]3(F)[C@@H](O)C[C@]2(C)[C@@]1(O)C(=O)CO [Dexamethasone]
- IL-1β level in lung tissue homogenates ([1]; dexamethasone orally 1 mg/kg BID): did not influence
- TNF-α level in lung tissue homogenates ([1]; oral (hBD2 0.4 mg/kg TID; dexamethasone 1 mg/kg BID)): did not influence
- IFN-γ level in lung tissue homogenates [1, 4]: did not influence
- IL-6 level in lung tissue homogenates [1, 4]: did not influence
- IL-10 level in lung tissue homogenates [1, 4]: did not influence
- histological damage of colonic tissue ([2]; DEX 1 mg/kg subcutaneously OD): failed to significantly reduce
- body weight ([2]; DEX 1 mg/kg subcutaneously, from day 5 onwards, p<0.01): very significant decrease
- eosinophil count in BALF [3]: significantly inhibited
- lymphocyte count in BALF [3]: not
- macrophage count in BALF [3]: not
- neutrophil count in BALF [3]: not
- total cell count in BALF [3]: significantly inhibited
